# Several values for one entry are separate records, joined by “and”; a condition that tells them apart may be missing. Equal values may be shown once. The list shows a part of the results. Further columns of the screen follow, without active or inactive calls. For some assays here: Most of these compounds were active or inconclusive in the main read-out, so they are no random draw. For some assays here: Potencies come from curve fits of mixed quality, noted in brackets.
# How the values were obtained:
# [1] = Validation of Assay for Modulators of Lamin A Splicing (AID 1459); conditions: Lamin A splicing dual RFP/GFP fluorescence reporter, ratio
# In short: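 HeLa S3 lamin A-EGFP/DsRed2 stable clone, 600 cells/well, Opti-MEM 2% FBS; compounds by pin tool; 48 hrs, 37 °C/5% CO2; Acumen 488 nm scan, objects 10-100 um; GFP/RFP intensity ratio.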
# [2] = qHTS Assay for Lipid Storage Modulators (AID 1519); conditions: Drosophila S3 cells, BODIPY lipid droplet/cell ratio, laser cytometry, cells loaded with oleic acid
# In short: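 Cells seeded at 5,000 per well were treated with compounds over a concentration series and loaded with oleic acid (400 uM, as added). Lipid droplet fluorescence (488 nm excitation, 500-530 nm channel) was read by laser-scanning cytometry and normalized to 20 uM Triacsin C.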
# [3] = qHTS Assay for Modulators of Human Peripheral Myelin Protein 22 (PMP22) Expression/Activity (AID 1967); conditions: Cell-based PMP22 reporter, dual-color luciferase ratio
# In short: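 Luminescence ratio of Pmp22 promoter-driven green luciferase to EF-alpha-driven red luciferase, in engineered mouse MSC80 Schwann cells, served as read-out. Compounds were incubated 24h; untreated cells defined 0% Activity; curves were classified by r2, magnitude and activity.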
# [4] = Nrf2 qHTS screen for inhibitors: Validation (AID 493153); conditions: A549 ARE-Fluc reporter, 18-24 h; AC50: CellTiter-Fluor fluorescence read, measured here: cytotoxicity CellTiter-Fluor AC50; viability change: measured here: cytotoxicity max response
# In short: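 In this counterscreened reporter format, each well gives two signals: CellTiter-Fluor fluorescence for cytotoxicity and ARE-luciferase luminescence for Nrf2 function. A549 ARE_Fluc cells in 5% FBS OPTI-MEM were exposed to compound titrations for 18-24 h.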
# [5] = qHTS assay for small molecule antagonists of peroxisome proliferator-activated receptor delta signaling (AID 588535); conditions: HEK293T PPARd-UAS-bla, beta-lactamase FRET ratio, 18 h; 460 nm channel;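 also: cells co-treated with a PPAR-delta agonist as stimulator during compound exposure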
# In short: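 Beta-lactamase reporter read-out (405 nm excitation, 460/530 nm emission) after CCF4 loading for 2 hrs at RT. HEK293T PPAR-delta-UAS-bla cells, 2% charcoal/dextran FBS, compounds for 18 hrs at 37 C. Hill fit gave IC50 and efficacy.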
# [6] = qHTS assay for small molecule antagonists of peroxisome proliferator-activated receptor gamma signaling (AID 588537); conditions: HEK293 PPARg-UAS-bla, beta-lactamase ratio, antagonist mode; measured here: W460 blue channel
# In short: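 Read-out: CCF4 fluorescence (ex 405, em 460/530 nm) after 2 h at RT. Cells were HEK293 carrying a UAS-bla reporter and treated 16 h at 37 C with compound plus rosiglitazone (50 nM final). Normalized to rosiglitazone and DMSO.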
# [7] = qHTS assay for small molecule antagonists of retinoid X receptor alpha signaling (AID 588546); conditions: HEK293T RXRa-UAS-bla, beta-lactamase ratio, antagonist mode; measured here: W530 green channel, cytotoxicity proxy;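 also: cells stimulated with 9-cis-retinoic acid as agonist; % is scaled to controls: 0 for no effect and ±100 for the full control effect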
# In short: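 Beta-lactamase reporter inhibition, read as CCF4 fluorescence ratio (ex 405, em 460/530 nm) after 2 h at RT. HEK293T UAS-bla cells, 2500/well, were stimulated with 9-cis-RA at 500 or 100 nM final alongside test compound for 18 h at 37 C.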
# [8] = qHTS drug screen for cell cycle checkpoint inhibitors in PARPi-resistant BRCA-mutant ovarian cancer cell lines. (AID 1963452); conditions: PEO1/OlaR viability, CellTiter-Glo luminescence, 96 h
# In short: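 PEO1, PEO4 and PEO1/OlaR ovarian cancer cells, 600 per well, exposed 96 h at 37C to a dilution series. Viability read by CellTiter-Glo luminescence, normalized to DMSO and empty wells; activity summarized as Z-AUC.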
# [9] = qHTS Validation Assay to Find Inhibitors of Chronic Active B-Cell Receptor Signaling (AID 485345); conditions: ABC-DLBCL cells, chronic BCR signaling reporter
# In short: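 TMD8 ABC-DLBCL cells stably carrying doxycycline-inducible IkappaBalpha–green luciferase fusion plus unfused red luciferase; compounds 46 uM to 3 nM, 4 h at 37C with doxycycline. Corrected green/red luminescence ratio normalized to 10 uM MG-132 and basal cell wells; curves fitted.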
# [10] = qHTS assay for small molecule antagonists of androgen receptor signaling (AID 588516); conditions: AR-UAS-bla HEK293, beta-lactamase ratio, antagonist mode, 16 h; measured here: W460 blue channel fit
# In short: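 Antagonist mode: inhibition of R1881-stimulated (10 nM final) bla reporter in GeneBLAzer AR HEK 293 cells, 16 h at 37C, compounds titrated. IC50 and efficacy from Hill-equation fits of 405/460–530 nm FRET ratios.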
# [11] = qHTS assay for small molecule agonists of retinoid X receptor alpha signaling (AID 588544); conditions: HEK293T RXRa-UAS-bla, beta-lactamase reporter, 18 h; 530 nm emission
# [12] = S16 Schwann cell PMP22 intronic element beta-lactamase assay (AID 624044); conditions: S16 rat Schwann cells, PMP22 element beta-lactamase FRET, 24 h; measured here: 460 nm blue channel
# In short: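 Beta-lactamase reporter under a PMP22 intronic regulatory element in stable S16 rat Schwann cells; 24 h compound exposure. 460 nm blue signal normalized between DMSO (0%) and potassium clavulanate, with 535 nm FRET tracking viability; curves classed by r2 and response.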
# [13] = qHTS for identification of novel therapeutic agents for treatment of microphthalmiaassociated transcription factor (MiT) renal cell carcinoma (RCC) (AID 1963991); conditions: CellTiter-Glo, 48 h; for z-score: stronger effect = lower value
# In short: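 Three TFE3-fusion RCC lines (UOK109, UOK124, UOK145), 500 cells/well in complete medium, were treated with MIPE 4.0 compounds for 48 hours at 37 C. Viability was by CellTiter-Glo luminescence, normalized to DMSO (100%) and empty wells (0%); curves fitted over 11 concentrations.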
# [14] = A High-Content qHTS Against Drug Library for the Identification of Small Molecules that Inhibit DYT1 Early Onset Primary Dystonia-Associated Cell Pathology (AID 1645839); conditions: HEK293 Flp-In EGFP-delE TorsinA, punctate imaging, 48 h; measured here: cell count cytotoxicity
# In short: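 Cells were seeded and left for 24 h, then dosed with compound alongside tetracycline induction of mutant EGFP-TorsinA. They were incubated for 48 h, fixed in 4% paraformaldehyde, permeabilized and imaged for mislocalization (%pathology) and cell count.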
# [15] = measured here: cell count channel max response
# [16] = measured here: cell number channel AC50
# [17] = measured here: lipid (BODIPY) channel AC50
# [18] = measured here: lipid channel max response
# [19] = measured here: green reporter channel AC50, mouse Pmp22 promoter in mouse Schwann cells
# [20] = measured here: red reporter channel AC50, EF-alpha promoter control reporter in MSC80 mouse Schwann cells
# [21] = measured here: PEO1 parental viability
# [22] = measured here: CBG/CBR ratio read-out
# [23] = measured here: CBR control luciferase (viability counter)
# [24] = TFE3-RCC UOK109 viability, measured here: UOK109 Z-AUC
# [25] = TFE3-RCC viability, measured here: UOK124 Z-AUC
# [26] = TFE3-RCC viability, measured here: UOK145 Z-AUC
# [27] = TFE3-RCC viability, measured here: UOK145 cell viability
smiles,measurement,setting,value
Cc1cccc(C(=O)NCN2CCN(c3ccccc3C#N)CC2)c1,AC50,[1]; measured here: GFP channel,"35.5 µM [falling, single point]"
same,AC50,[1]; measured here: RFP channel,"35.5 µM [falling, single point]"
same,max response,[2]; [15],55.3%
same,AC50,[2]; [16],"14.1 µM [rising, partial curve, poor fit]"
same,AC50,[2]; [17],"14.1 µM [rising, partial curve, poor fit]"
same,max response,[2]; [18],70.9%
same,AC50,[3]; [19],"95.3 µM [falling, single point]"
same,AC50,[3]; [20],"95.3 µM [falling, single point]"
same,viability change,[4],-0.858%
C[C@]12CC[C@@H]3c4ccc(O)cc4CC[C@H]3[C@@H]1CC[C@@H]2O,AC50,[1]; measured here: GFP channel,"3.55 µM [rising, single point]"
same,AC50,[1]; measured here: RFP channel,"3.55 µM [rising, single point]"
same,max response,[2]; [15],-6.81%
same,AC50,[2]; [16],"1.58 µM [falling, full curve, poor fit]"
same,AC50,[2]; [17],"1.78 µM [falling, full curve, poor fit]"
same,max response,[2]; [18],-4.35%
same,AC50,[3]; [20],"67.5 µM [falling, partial curve, poor fit]"
same,max response,[5],-40.4%
same,AC50,[6],"44.7 µM [falling, partial curve, poor fit]"
same,max response,[7],2.86%
same,AC50,[8]; [21],"24.5 µM [falling, single point]"
same,AC50,[8]; measured here: PEO4 viability,"15.5 µM [falling, single point]"
CC(C)(C)c1ccc(S(=O)(=O)/C=C/C#N)cc1,AC50,[1]; measured here: GFP channel,"7.94 µM [falling, partial curve]"
same,AC50,[1]; measured here: RFP channel,"11.2 µM [falling, partial curve]"
same,max response,[2]; [15],-80.5%
same,AC50,[2]; [16],"14.1 µM [falling, full curve, poor fit]"
same,AC50,[2]; [17],"14.1 µM [falling, full curve, poor fit]"
same,max response,[2]; [18],-111%
same,AC50,[3]; [19],"7.57 µM [falling, full curve]"
same,AC50,[3]; [20],"8.49 µM [falling, full curve]"
same,AC50,[9]; [22],"3.66 µM [falling, single point]"
same,AC50,[9]; [23],"7.31 µM [falling, partial curve]"
CN(Cc1cnc2nc(N)nc(N)c2n1)c1ccc(C(=O)N[C@@H](CCC(=O)O)C(=O)O)cc1,AC50,[1]; measured here: GFP channel,"0.178 µM [falling, full curve]"
same,AC50,[1]; measured here: RFP channel,"0.178 µM [falling, full curve, poor fit]"
same,max response,[2]; [15],30.2%
same,AC50,[2]; [16],"5.62 µM [rising, partial curve, poor fit]"
same,AC50,[2]; [17],"28.2 µM [rising, partial curve, poor fit]"
same,max response,[2]; [18],40.2%
same,AC50,[10],"35.5 µM [rising, partial curve, poor fit]"
same,AC50,[6],"2 µM [falling, full curve, poor fit]"
same,max response,[11],26.9%
same,max response,[7],29.9%
same,AC50,[12],"0.112 µM [falling, full curve, poor fit]"
same,AC50,[8]; [21],"0.49 µM [rising, full curve, poor fit]"
same,z-score,[13]; [24],-0.0318
same,z-score,[13]; [25],-2.26
same,AC50,"[13]; TFE3-RCC viability, measured here: UOK124 cell viability","0.0332 µM [falling, full curve]"
same,z-score,[13]; [26],-2.1
same,AC50,[13]; [27],"0.0743 µM [falling, full curve]"
CN=c1nc(-c2ccccc2)n(-c2ccccc2)s1,AC50,[1]; measured here: GFP channel,"25.1 µM [falling, single point]"
same,AC50,[1]; measured here: RFP channel,"22.4 µM [falling, partial curve]"
same,max response,[2]; [15],-84.6%
same,AC50,[2]; [16],"39.8 µM [falling, partial curve, poor fit]"
same,AC50,[2]; [17],"39.8 µM [falling, partial curve, poor fit]"
same,max response,[2]; [18],-84.7%
same,AC50,[3]; [19],"75.7 µM [falling, partial curve, poor fit]"
same,AC50,[3]; [20],"75.7 µM [falling, single point]"
same,viability change,[4],-5%
OCCN1CCN(CCCN2c3ccccc3Sc3ccc(Cl)cc32)CC1,AC50,[1]; measured here: GFP channel,"22.4 µM [falling, single point]"
same,AC50,[1]; measured here: RFP channel,"17.8 µM [falling, partial curve]"
same,max response,[2]; [15],29.3%
same,max response,[2]; [18],31.8%
same,AC50,[9]; [22],"16.4 µM [falling, single point]"
same,AC50,[9]; [23],"18.4 µM [falling, single point]"
same,AC50,[14],"0.355 µM [falling, full curve, poor fit]"
Clc1ccccc1C(c1ccccc1)(c1ccccc1)n1ccnc1,AC50,[1]; measured here: GFP channel,"14.1 µM [rising, partial curve]"
same,AC50,[1]; measured here: RFP channel,"14.1 µM [rising, partial curve]"
same,max response,[2]; [15],52.6%
same,max response,[2]; [18],50.8%
same,AC50,[3]; [19],"47.8 µM [falling, partial curve]"
same,AC50,[3]; [20],"42.6 µM [falling, partial curve]"
same,viability change,[4],4.88%
same,AC50,[14],"8.91 µM [falling, partial curve]"
same,AC50,[8]; [21],"17.4 µM [falling, single point]"
same,AC50,[8]; measured here: PEO4 viability,"15.5 µM [falling, single point]"
same,z-score,[13]; [24],0.174
same,z-score,[13]; [25],0.78
same,z-score,[13]; [26],0.279
same,AC50,[13]; [27],"14.8 µM [falling, partial curve, poor fit]"
CCn1c(=O)[nH]c2cc(Cl)c(Cl)cc21,AC50,[1]; measured here: GFP channel,"17.8 µM [falling, partial curve]"
same,AC50,[1]; measured here: RFP channel,"0.794 µM [falling, partial curve]"
same,max response,[2]; [15],92.5% and 76%
same,AC50,[2]; [16],"28.2 µM [rising, partial curve]"
same,AC50,[2]; [17],"31.6 µM [rising, partial curve]"
same,max response,[2]; [18],121% and 77.3%
same,AC50,[3]; [20],"84.9 µM [falling, single point]"
same,viability change,[4],-10.4%

# In a second layout: entries from further up.
smiles | measurement | setting | value
Clc1ccccc1C(c1ccccc1)(c1ccccc1)n1ccnc1 | z-score | [13]; [25] | 0.78
same | z-score | [13]; [26] | 0.279
same | AC50 | [13]; [27] | 14.8 µM [falling, partial curve, poor fit]
CCn1c(=O)[nH]c2cc(Cl)c(Cl)cc21 | AC50 | [1]; measured here: GFP channel | 17.8 µM [falling, partial curve]
same | AC50 | [1]; measured here: RFP channel | 0.794 µM [falling, partial curve]
same | max response | [2]; [15] | 92.5% and 76%

# Source: PubChem BioAssay (NCATS)
